## Assay results

The results are deposited in PubChem (AID977624; Broad Institute, 2014).

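GFP-tagged normal-ribosome E. coli mixed with an RFP-tagged h34 humanized strain, with green signal taken as growth after 24 hours. The value is the change in activity at the highest dose tested; more negative means stronger inhibition. Active requires GFP to fall at least twice as much as RFP with growth loss below a set limit; inconclusive means no clear call; everything else is inactive.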

Only part of the assay is shown, chiefly results filed as inconclusive.

compound	condition	activity change	outcome
Cc1cc(C(=O)Nc2ccc(Cl)cc2)c(C)n1Cc1cccs1	at 50 µM (top of the series)	14.25	inconclusive
COCc1[nH]nc2c1C(c1ccc3c(c1)OCO3)N(c1ccc(OC)cc1)C2=O (stereo unspecified)	at 50 µM (top of the series)	8.825	inactive
COc1cc(CO)cc(Br)c1OCC(=O)Nc1cccc2ccccc12	at 50 µM (top of the series)	-44.8	inconclusive
CSc1ccc(CN(C)CC(=O)NC(C)c2ccccc2)cc1 (stereo unspecified)	at 50 µM (top of the series)	-0.85	inactive
CCN(CC)CCN(C(=O)c1ccccc1OC)c1nc2ccc(F)cc2s1	at 50 µM (top of the series)	15.81	inconclusive
O=C(CN1CCN(S(=O)(=O)c2ccc(Cl)cc2)CC1)Nc1ccc2c(c1)CCC2	at 50 µM (top of the series)	-13.18	inconclusive
CN(C)CCNc1ncnc2c1sc1nc(N3CCCC3)c3c(c12)CC(C)(C)OC3	at 50 µM (top of the series)	17.88	inconclusive
COCCn1c(SCc2nc3ccccc3s2)nc2ccccc21	at 50 µM (top of the series)	-7.69	inactive
O=[N+]([O-])c1cncc([N+](=O)[O-])c1Nc1cccc(O)c1	at 50 µM (top of the series)	21.66	inconclusive
CN(C(=O)c1cccc(NC(=O)Cc2cccc(NC(=O)C3CCN(C(=O)CCc4ccccc4)CC3)c2)c1)C1CC1	at 50 µM (top of the series)	-9.19	inconclusive
c1ccc(Nc2ccc3ccccc3c2)cc1	at 50 µM (top of the series)	12.52	inconclusive
COc1cc(CCN(C(=O)c2cc3ccccc3[nH]2)C(c2ccccn2)c2nc3ccccc3[nH]2)cc(OC)c1 (stereo unspecified)	at 50 µM (top of the series)	13.08	inconclusive
COc1ccccc1N1CCN(Cc2ccc(OC)c3ccccc23)CC1	at 50 µM (top of the series)	8.931	inactive
c1coc(CSc2ncnc3c2oc2ccccc23)c1	at 50 µM (top of the series)	25.9	inconclusive
Cc1ccc(S(=O)(=O)N2CCOCC2)cc1NC(=O)COc1ccc(-c2nnco2)cc1	at 50 µM (top of the series)	10.9	inconclusive
COc1cccc(C(=O)Nc2nnc(S(=O)(=O)N(C)Cc3ccccc3)s2)c1	at 50 µM (top of the series)	-5.68	inconclusive
CCOC(=O)c1cccc(OS(=O)(=O)Cc2ccccc2)c1	at 50 µM (top of the series)	-11.38	inconclusive
Cc1ccc(NC(=O)c2ccccc2F)c(NC(=O)c2ccccc2F)c1	at 50 µM (top of the series)	12.56	inconclusive
O=C(CN1CCCCC1)n1c2ccccc2c2ccccc21	at 50 µM (top of the series)	17.05	inconclusive
Nc1[nH]c(C(=O)c2ccccc2)c(-c2ccc(Cl)cc2)c1C(=O)NCCc1c[nH]c2ccccc12	at 50 µM (top of the series)	9.425	inconclusive
CC(C)(C)c1ccc(S(=O)(=O)NCc2ccc(C(=O)NCc3ccccn3)cc2)cc1	at 50 µM (top of the series)	-8.255	inconclusive
CSC1=NCCN1C(=O)Cc1ccc(-c2ccccc2)cc1	at 50 µM (top of the series)	-1.449	inconclusive
COc1ccc(OC)c(Nc2nc(N)c([N+](=O)[O-])c(N3CCOCC3)n2)c1	at 50 µM (top of the series)	-6.618	inconclusive
CN(C)S(=O)(=O)c1cccc(NC(=O)c2ccc3c(c2)S(=O)(=O)N=C2CCCCCN23)c1	at 50 µM (top of the series)	10.57	inactive
COc1cc[n+]([O-])cc1[N+](=O)[O-]	at 50 µM (top of the series)	17.23	inactive
COc1ccc(-c2ccccc2)cc1NC(=O)c1ccncc1	at 50 µM (top of the series)	0.875	inconclusive
CC(=O)N1c2c(cc(Br)cc2S(=O)(=O)N2CCCCC2)CC1C (stereo unspecified)	at 50 µM (top of the series)	9.244	inconclusive
CCOC(=O)c1cnc2c(cnn2C)c1NCc1ccc(OC)cc1	at 50 µM (top of the series)	-19.88	inconclusive
C[C@@H]1CCCCO[C@@H](CN(C)C(=O)CCCN(C)C)[C@@H](C)CN([C@H](C)CO)C(=O)c2cc(NC(=O)Nc3cccc4ccccc34)ccc2O1	at 50 µM (top of the series)	53.87	inconclusive
COc1ccc(NC(=O)Nc2cccc3c2O[C@@H](CN(C)S(=O)(=O)c2ccc(Cl)cc2)[C@H](C)CN([C@@H](C)CO)C3=O)cc1	at 26 µM (top of the series)	27.07	inconclusive
O=C(Nc1cccc(Cl)c1)N1C[C@@H]2[C@H](c3ccccc31)[C@@H](CO)N2CC1CCCCC1	at 50 µM (top of the series)	-78.74	inconclusive
COc1ccc(-c2cc(C(=O)O)nc3ccc4ccccc4c23)cc1OC	at 50 µM (top of the series)	4.499	inactive
CCOc1ccc(S(=O)(=O)N(C)c2ccc(OCC(=O)NCc3cccnc3)cc2)cc1	at 50 µM (top of the series)	-7.65	inconclusive
Cc1cccc(-c2ccc([C@H]3[C@@H](CO)N4CCCCN(S(=O)(=O)c5ccccc5C)C[C@@H]34)cc2)c1	at 50 µM (top of the series)	24.24	inconclusive
CC(C)Oc1nc(-c2ccccc2Cl)nc2ccccc12	at 50 µM (top of the series)	-5.489	inconclusive
O=C(NOCc1ccccc1)c1coc(-c2ccccc2)n1	at 50 µM (top of the series)	-0.321	inactive
O=C(OCC(=O)N1CCOCC1)c1cccc(S(=O)(=O)N2CCCc3ccccc32)c1	at 50 µM (top of the series)	9.803	inconclusive
CCN(CC)CC(=O)Nc1ccc(-c2ccc(NC(=O)CN(CC)CC)c(OC)c2)cc1OC	at 50 µM (top of the series)	-6.252	inconclusive
Cn1cnc(CCNC(=O)C[C@H]2CC[C@@H]3[C@H](COC[C@H](O)CN3C(=O)Nc3ccc(Cl)cc3)O2)c1	at 50 µM (top of the series)	-15.3	inconclusive
Cc1noc(C)c1NC(=O)N(C)C[C@H]1OCCCC[C@@H](C)Oc2ccc(NC(=O)Nc3cccc4ccccc34)cc2C(=O)N([C@@H](C)CO)C[C@H]1C	at 50 µM (top of the series)	18.87	inactive
COc1ccccc1C(=O)Nc1ccc2c(c1)nc1n2CCN(C2CCCCC2)C1	at 50 µM (top of the series)	-17.15	inconclusive
OCCCc1cn(-c2ccccc2)c2ccccc12	at 50 µM (top of the series)	-21.57	inconclusive
O=C(C[n+]1ccn(-c2ccccc2)c1)c1ccc([N+](=O)[O-])cc1	at 50 µM (top of the series)	44.53	inconclusive
COc1cc2c(c(OC)c1OC)C(c1ccc3c(c1)OCO3)CC(=O)O2 (stereo unspecified)	at 50 µM (top of the series)	11.4	inactive
COc1ccccc1C1CCN(Cc2cccc([N+](=O)[O-])c2)CC1	at 50 µM (top of the series)	13.84	inconclusive

Once more, the final 4:

{"compound": "OCCCc1cn(-c2ccccc2)c2ccccc12", "condition": "at 50 µM (top of the series)", "activity change": "-21.57", "outcome": "inconclusive"}
{"compound": "O=C(C[n+]1ccn(-c2ccccc2)c1)c1ccc([N+](=O)[O-])cc1", "condition": "at 50 µM (top of the series)", "activity change": "44.53", "outcome": "inconclusive"}
{"compound": "COc1cc2c(c(OC)c1OC)C(c1ccc3c(c1)OCO3)CC(=O)O2", "stereo": "stereo unspecified", "condition": "at 50 µM (top of the series)", "activity change": "11.4", "outcome": "inactive"}
{"compound": "COc1ccccc1C1CCN(Cc2cccc([N+](=O)[O-])c2)CC1", "condition": "at 50 µM (top of the series)", "activity change": "13.84", "outcome": "inconclusive"}